Values from PubChem BioAssay AID504774 (Drosophila RNAi Screening Center, 2011).
Test: 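Genes required for cells to withstand methyl methanesulphonate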 (primary screen). System: Drosophila Kc167 cells. Reagent: long dsRNA against Drosophila genes, about 0.25 µg dsRNA per well. Duration: about 6 days: 3 days knock-down, then 3 days with or without MMS. Conditions: methyl methanesulphonate 0.004% (w/v) for 3 days after knock-down. Detection: 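Viability in wells given MMS, read as ATP luminescence, normalised by quantiles plate by plate and averaged across replicates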. Direction: mean viability with MMS: higher = more surviving cells after MMS.
In all, the deposit lists about 23,000 reagents; below is an unselected part of those with a known target gene and a result. 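Values are quantile-normalised luminescence on an arbitrary scale; higher means more cells surviving MMS.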 Names joined by + are all predicted targets of the reagent. Not all columns of the deposit are shown.

Su(z)12 [DRSC11293] | mean viability with MMS: 3.45e6
CG34034 [DRSC13506] | mean viability with MMS: 3.45e6
MESK2 + CG10494 [DRSC04259] | mean viability with MMS: 3.46e6
CG9777 [DRSC20208] | mean viability with MMS: 3.45e6
CG5776 [DRSC02891] | mean viability with MMS: 3.80e6
Cyp4d1 (Cytochrome P450 4d1) [DRSC17694] | mean viability with MMS: 3.52e6
Cyp4d1 (Cytochrome P450 4d1) [DRSC18456] | mean viability with MMS: 3.49e6
CG17959 [DRSC18142] | mean viability with MMS: 3.60e6
Cpr (Cytochrome P450 reductase) [DRSC03293] | mean viability with MMS: 3.55e6
CG1227 [DRSC12534] | mean viability with MMS: 3.43e6
Prim1 (DNA primase subunit 1) [DRSC11137] | mean viability with MMS: 3.28e6
CG15012 [DRSC08465] | mean viability with MMS: 3.72e6
CG14313 [DRSC14792] | mean viability with MMS: 3.45e6
TwdlD (TweedleD) [DRSC14738] | mean viability with MMS: 3.50e6
NdufV3 (NADH:ubiquinone oxidoreductase subunit V3) [DRSC19423] | mean viability with MMS: 3.68e6
CG43339 + CG43338 [DRSC02466] | mean viability with MMS: 3.59e6
tal-1A + tal-2A + tal-AA + 1 more [DRSC12992] | mean viability with MMS: 3.48e6
CG4020 [DRSC18337] | mean viability with MMS: 3.52e6
MSBP (membrane steroid binding protein) [DRSC20146] | mean viability with MMS: 3.54e6
ArfGAP1 (ADP-ribosylation factor GTPase activating protein 1) [DRSC11173] | mean viability with MMS: 3.36e6
CG42307 + mus312 [DRSC11008] | mean viability with MMS: 3.80e6
CG31528 [DRSC12003] | mean viability with MMS: 3.37e6
CG15296 [DRSC17983] | mean viability with MMS: 3.46e6
Pits (Protein interacting with Ttk69 and Sin3A) [DRSC19385] | mean viability with MMS: 3.38e6
Pits (Protein interacting with Ttk69 and Sin3A) [DRSC19812] | mean viability with MMS: 3.61e6
CG43902 [DRSC17999] | mean viability with MMS: 3.47e6
mRpL46 (mitochondrial ribosomal protein L46) [DRSC08391] | mean viability with MMS: 3.52e6
CG13623 [DRSC14625] | mean viability with MMS: 3.36e6
ND2 (retired record) [DRSC21274] | mean viability with MMS: 3.59e6
Gr66a (Gustatory receptor 66a) [DRSC10783] | mean viability with MMS: 3.56e6
ksr (kinase suppressor of ras) [DRSC12379] | mean viability with MMS: 3.40e6
CG14960 [DRSC08419] | mean viability with MMS: 3.63e6
mei-S332 (meiotic from via Salaria 332) [DRSC04704] | mean viability with MMS: 3.63e6
pon (partner of numb) [DRSC18823] | mean viability with MMS: 3.55e6
spz (spatzle) [DRSC17065] | mean viability with MMS: 3.61e6

Sorted by “mean viability with MMS” (ascending): some entries from above.
CG31528 [DRSC12003] | mean viability with MMS: 3.37e6
Pits (Protein interacting with Ttk69 and Sin3A) [DRSC19385] | mean viability with MMS: 3.38e6
CG15296 [DRSC17983] | mean viability with MMS: 3.46e6
CG42307 + mus312 [DRSC11008] | mean viability with MMS: 3.80e6
